Reference: PubChem BioAssay AID686943 (Drosophila RNAi Screening Center, 2013)

Test: 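Knockdowns that increase or decrease active ERK after insulin receptor stimulation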 (primary screen)
Cell system: Drosophila S2R+ haemocyte-like cells expressing YFP-tagged ERK (Rolled)
Knock-down reagent: long dsRNA against Drosophila genes
Challenge: insulin stimulation versus unstimulated cells; dose and duration not given
Detection: 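Antibody staining for doubly phosphorylated ERK divided by ERK-YFP signal, as plate z-scores, in insulin-treated and untreated cells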
Direction: replicate 1, z-score of dpERK with insulin: higher = more active ERK per ERK-YFP after insulin
In all, the deposit lists about 23,000 reagents; this is a random part of those that have a named target and a result. 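Extra replicates exist only for a retested subset of genes; insulin dose and duration not given; both raised and lowered dpERK matter.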 The numbers tell different reagents against one gene apart. A plus sign joins genes that one reagent is predicted to hit. Not all columns of the deposit are shown. Not given: the amount of reagent, the time to read-out.

Dic1 (GeneID 41640)
- replicate 1, z-score of dpERK with insulin: -0.34

CG5326 (GeneID 42655) #1
- replicate 1, z-score of dpERK with insulin: 0.43

CG5326 (GeneID 42655) #2
- replicate 1, z-score of dpERK with insulin: -0.17

CG5079 (GeneID 43089)
- replicate 1, z-score of dpERK with insulin: -0.88

Acp29AB (GeneID 34162)
- replicate 1, z-score of dpERK with insulin: -1.11

Ugt35B1 (GeneID 41333)
- replicate 1, z-score of dpERK with insulin: 0.12

CG17768 + LSm-4
- replicate 1, z-score of dpERK with insulin: -0.02

CG18493 (GeneID 42319)
- replicate 1, z-score of dpERK with insulin: 5.95

ben (GeneID 32358) #1
- replicate 1, z-score of dpERK with insulin: -0.53

ben (GeneID 32358) #2
- replicate 1, z-score of dpERK with insulin: -0.15

Gip (GeneID 31960)
- replicate 1, z-score of dpERK with insulin: 0.13

CG1316 (GeneID 38526)
- replicate 1, z-score of dpERK with insulin: -0.2

ND5 (retired record) (GeneID 192478)
- replicate 1, z-score of dpERK with insulin: 0.2

NimB2 (GeneID 260645)
- replicate 1, z-score of dpERK with insulin: -0.07

5-HT2B (GeneID 41017) #1
- replicate 1, z-score of dpERK with insulin: 0.85

5-HT2B (GeneID 41017) #2
- replicate 1, z-score of dpERK with insulin: 1.25

Abd-B (GeneID 47763) #1
- replicate 1, z-score of dpERK with insulin: 0.16

Abd-B (GeneID 47763) #2
- replicate 1, z-score of dpERK with insulin: -0.08

Nup107 (GeneID 34481)
- replicate 1, z-score of dpERK with insulin: -0.97

CG8026 (GeneID 35941) #1
- replicate 1, z-score of dpERK with insulin: 0.48

CG8026 (GeneID 35941) #2
- replicate 1, z-score of dpERK with insulin: -0.38

Entries above whose gene name starts with B or b:
ben (GeneID 32358) #1
- replicate 1, z-score of dpERK with insulin: -0.53

ben (GeneID 32358) #2
- replicate 1, z-score of dpERK with insulin: -0.15
